PubChem BioAssay AID504764 | Drosophila RNAi Screening Center | 2011
Purpose: 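Knock-downs that raise or lower a Notch target reporter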 (primary screen). System: Drosophila Kc167 cells. Reagent: long dsRNA against Drosophila genes. Time to read-out: about 5 days (4 days dsRNA, then 24 h after transfection). Treatment: transfection of constitutively active membrane-tethered Notch lacking the extracellular domain, read 24 h later. Measured: 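Light from a Notch-responsive E(spl)m3 luciferase reporter under active Notch, with control-promoter and no-Notch reporter wells to normalise; raw counts from paired wells a and b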. Reading the numbers: induced reporter light, run 1, well a and induced reporter light, run 1, well b: higher = more light from the Notch target reporter with active Notch; control promoter light, run 1, well a and control promoter light, run 1, well b: higher = more light from the viral control promoter (cell number, transfection, viability); uninduced reporter light, run 1, well a: higher = more light from the Notch target reporter without active Notch. Hit rule: 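Hit if the duplicate-averaged log2 ratio of induced to control-promoter light gives a plate-wise z beyond ±2, or induced to uninduced beyond ±1.8; weak-control or discordant-duplicate wells dropped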. Meaning of the calls: active = modifier hit (raised or lowered Notch signal); inactive = not a hit.
The deposit covers about 22,000 reagents; this is a random part of those that have a named target and a result. In the full data, 403 (1.9%) were called active. 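Unnormalised raw counts per well; ratio z-scores behind the hit calls and whether each hit raises or lowers signal are not deposited.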 Names joined by + are all predicted targets of the reagent. No sequences are given here. Not stated in the record: the amount of reagent.

no.	target gene	amplicon	induced reporter light, run 1, well a	induced reporter light, run 1, well b	control promoter light, run 1, well a	control promoter light, run 1, well b	uninduced reporter light, run 1, well a	call
1	Vps25	DRSC06486	1.69e5	1.66e5	2.03e5	2.19e5	14690	inactive
2	CG10038	DRSC14178	1.11e5	99810	69465	88360	7892	inactive
3	att-ORFB + DPCoAC	DRSC15556	1.43e5	1.42e5	1.78e5	1.87e5	11640	inactive
4	CG16957	DRSC02545	1.46e5	1.43e5	1.57e5	1.78e5	12665	inactive
5	TotC	DRSC13449	53500	64660	67390	44610	8710	inactive
6	SdhA	DRSC07547	1.03e5	1.01e5	2.15e5	2.04e5	9170	inactive
7	CG14331	DRSC14810	1.89e5	1.62e5	1.44e5	1.61e5	12820	inactive
8	CG32590	DRSC19594	78010	82930	1.02e5	1.20e5	12145	inactive
9	CG34386	DRSC06467	20055	18115	17760	19460	5205	inactive
10	CG34386	DRSC06468	88795	85860	1.05e5	98925	6430	inactive

2 entries from above, showing only “induced reporter light, run 1, well b”:
CG10038 [DRSC14178] = 99810
att-ORFB + DPCoAC [DRSC15556] = 1.42e5

More records:
no.	target gene	amplicon	induced reporter light, run 1, well a	induced reporter light, run 1, well b	control promoter light, run 1, well a	control promoter light, run 1, well b	uninduced reporter light, run 1, well a	call
11	Cse1	DRSC03287	1.54e5	1.70e5	80660	83690	15555	active
12	CG4563	DRSC04474	2.86e5	2.08e5	1.84e5	1.89e5	17825	inactive
13	Or19a	DRSC20684	91790	83620	92890	1.00e5	10565	inactive
14	CG6695	DRSC16098	1.68e5	1.67e5	1.87e5	1.94e5	13835	inactive
15	armi	DRSC08193	81040	1.07e5	1.31e5	1.37e5	5780	inactive
16	CG14397	DRSC02381	43385	39545	47445	55235	2680	inactive
17	CG7016	DRSC16174	1.57e5	1.82e5	1.94e5	1.91e5	14935	inactive
18	CG17508	DRSC07771	1.18e5	1.70e5	3.15e5	2.26e5	8460	inactive
19	mir-210 (retired record)	DRSC19230	99675	1.01e5	99725	83005	7780	inactive
20	CG42713	DRSC01050	1.38e5	1.41e5	2.63e5	1.94e5	10275	inactive
